Experimental data as given in US9278997B2 (NOVARTIS AG, priority 2011, dated 2016).

Test: general procedure: hybrid (solid and solution phase) peptide synthesis; HATU/DMAP (macrolactamisation)
[1] = late stage modification step, HPLC

Substance: (S)-2-acetamido-N^1-((1S,2S,5S,8S,11R,12S,15S,18S,21R)-2-benzyl-21-hydroxy-5-(4-hydroxybenzyl)-15-isobutyl-8-isopropyl-4,11-dimethyl-3,6,9,13,16,22-hexaoxo-10-oxa-1,4,7,14,17-pentaazabicyclo[16.3.1]docosan-12-yl)pentanediamide
- step yield (late stage modification step): 81%
- final purity (method not given) (late stage modification step, HPLC, run 1): 97% (A) and 90% (A)

Substance: (S)—N^1-((2S,5S,8S,11R,12S,15S,18S,21R)-2,8-di-(S)-sec-butyl-21-hydroxy-5-(4-hydroxybenzyl)-15-isobutyl-4,11-dimethyl-3,6,9,13,16,22-hexaoxo-10-oxa-1,4,7,14,17-pentaazabicyclo[16.3.1]docosan-12-yl)-2-isobutyramidopentanediamide
- step yield (late stage modification step): 87.8%
- crude HPLC purity [1]: ca. 95.6 area %
- final purity (method not given) [1]: 96.8 area %
- step yield (late stage modification step, run 1): 59.1%
- step yield (late stage modification step, run 2): 64%

Substance: (S)—N^1-((3S,6S,9S,12S,15S,18S,19R)-6-(4-(tert-butoxy)benzyl)-3,9-di((S)-sec-butyl)-12-(3-hydroxypropyl)-15-isobutyl-7,19-dimethyl-2,5,8,11,14,17-hexaoxo-1-oxa-4,7,10,13,16-pentaazacyclononadecan-18-yl)-2-isobutyramido-N^5-tritylpentanediamide
- step yield (late stage modification step): 82% and 94.5%
- final HPLC purity [1]: 97 a %

Substance: Isobutyryl-Gln(Trt)-Thr(Ile-Tyr(tBu)Me-Ile-Synthon 1-H)-Leu-OH
- final purity (method not given) (whole synthesis, HPLC, run 1): 98.8%
- final purity (method not given) (whole synthesis, HPLC, run 2): 99.3% a
- isolated yield (whole synthesis, for the last two steps): 48%

Several values for one entry are separate records, joined by “and”; a condition that tells them apart may be missing. Identical values can stand only once.
